PubChem BioAssay AID1224830 | NIAID | 2016

Assay: 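Host factors that control LPS-induced TNF expression in human macrophages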 (primary screen)
Cell system: human THP-1 monocytic leukaemia cells, TNF dual-luciferase reporter clone, PMA-differentiated to macrophage-like cells
Knock-down reagent: siRNA pool against human genes, 50 nM
Duration: LPS for 4 h, given about 3 days after siRNA transfection
Conditions: bacterial LPS (TLR4 ligand), 10 ng/ml
Read-out: 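Ratio of firefly to renilla light, scaled to the plate median and expressed as a robust z-score per replicate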
Reading the numbers: TNF reporter robust z-score: higher = stronger TNF reporter response to LPS
Rule for the call: 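Each well counts as active if its z-score is over 2.8 or under -1.5; controls are left without a call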
The whole screen tested about 18,000 reagents; shown is a random part of them. About 2,900 of them (16%) count as active. 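Calls are made per well; low scores hint the gene aids the LPS response, high scores that it dampens it.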 Repeated entries: four replicate wells of each siRNA pool. No sequences are given here.

AP5B1
- TNF reporter robust z-score: 1.34
- Call: inactive

AP5B1
- TNF reporter robust z-score: -0.26
- Call: inactive

AP5B1
- TNF reporter robust z-score: 0.01
- Call: inactive

AP5B1
- TNF reporter robust z-score: 0.54
- Call: inactive

SEL1L3
- TNF reporter robust z-score: -0.56
- Call: inactive

SEL1L3
- TNF reporter robust z-score: -0.03
- Call: inactive

SEL1L3
- TNF reporter robust z-score: -0.74
- Call: inactive

SEL1L3
- TNF reporter robust z-score: 0.8
- Call: inactive

SMPX
- TNF reporter robust z-score: -0.49
- Call: inactive

SMPX
- TNF reporter robust z-score: 0.55
- Call: inactive

SMPX
- TNF reporter robust z-score: 0.48
- Call: inactive

SMPX
- TNF reporter robust z-score: -0.05
- Call: inactive

AMDHD2
- TNF reporter robust z-score: 0.83
- Call: inactive

AMDHD2
- TNF reporter robust z-score: 2.22
- Call: inactive

AMDHD2
- TNF reporter robust z-score: 3.97
- Call: active

AMDHD2
- TNF reporter robust z-score: 3.62
- Call: active

TNFAIP8
- TNF reporter robust z-score: 0.56
- Call: inactive

TNFAIP8
- TNF reporter robust z-score: 1.57
- Call: inactive

TNFAIP8
- TNF reporter robust z-score: 1.09
- Call: inactive

TNFAIP8
- TNF reporter robust z-score: 1.68
- Call: inactive

Laid out differently: results already given
{"gene knocked down":"AP5B1","TNF reporter robust z-score":-0.26,"Call":"inactive"}
{"gene knocked down":"AP5B1","TNF reporter robust z-score":0.01,"Call":"inactive"}
